# Primary screen of a compound library

Protein sequences, listed by entry. Tags and fused reporters are not part of them.
UniProt P9WPC5, whole entry: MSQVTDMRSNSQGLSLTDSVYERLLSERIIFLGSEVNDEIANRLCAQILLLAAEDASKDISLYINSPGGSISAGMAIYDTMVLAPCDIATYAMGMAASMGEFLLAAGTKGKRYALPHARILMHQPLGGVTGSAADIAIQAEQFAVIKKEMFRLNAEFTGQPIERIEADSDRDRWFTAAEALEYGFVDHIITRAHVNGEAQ
UniProt P9WPC3, whole entry partner: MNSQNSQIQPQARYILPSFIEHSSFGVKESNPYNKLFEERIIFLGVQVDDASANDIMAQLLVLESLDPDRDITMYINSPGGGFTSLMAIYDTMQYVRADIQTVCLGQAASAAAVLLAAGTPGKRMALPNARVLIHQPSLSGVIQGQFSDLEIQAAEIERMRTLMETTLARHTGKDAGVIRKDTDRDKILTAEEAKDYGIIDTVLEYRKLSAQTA

Each number is a percent effect as filed. The record does not define 0% and 100%; most values in the screen are far below 50% and negative numbers occur (in some assays of this library far below -100). This is an unselected part of the compounds tested.

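ClpP1P2, Mycobacterium tuberculosis (UniProt P9WPC5 and UniProt P9WPC3). Protease assay of ClpP1P2, read by the AMC dye that it sets free. Tested at 50 µM. Direction is inferred from only a few compounds that gave an IC50; most scored high, so higher reads as stronger inhibition. Most other retested compounds had strongly negative values. About 69,000 compounds were tested under these conditions; 0.015% (about 10) showed 50% or more at least once.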

CN(C)c1ccc(CC(=O)N[C@@H]2CCNC[C@H]2O)cc1 gave 4.929%. For O=C1CC(c2cccnc2)c2c(c(C(=O)O)cn2-c2cccc(F)c2)N1 (stereo unspecified) the result was -14.37%. Cc1cc(N2CCC(c3nnc(CN(C)C)n3C3CC3)CC2)ccn1 read 1.554%. With CC(O)(CNS(=O)(=O)Cc1ccon1)c1ccsc1 (stereo unspecified) the screen gave -9.558%. Result for COc1ccc(CNC(=O)CN2CCc3ccccc32)cc1 was 5.628%. For Cc1nc(CN2CCC(CNC(=O)CCC3CCCC3)CC2)oc1C the result was -2.602%. For COc1ccc2c(c1)[C@@H](CCNC(C)=O)CC(C)(C)O2 the result was -3.539%.

For CC(C)(C)c1noc(CCCC(=O)N2CCNC(=O)C2)n1 the result was 2.421%. For CN(Cc1cccc(F)c1)C(=O)c1ccncc1Cl the result was -1.4%. O=C(CCC1CCN(C2Cc3ccccc3C2)CC1)NCC1CCCO1 (stereo unspecified) gave -12.02%. Result for CCS(=O)(=O)N1C[C@H]2CC[C@@]3(N=C(C)N(CC(C)C)C3=O)[C@H]2C1 was 5.789%. Cc1ccc2nc(C)cc(C(=O)NC(C)c3nnn[nH]3)c2c1 (stereo unspecified) gave -14.19%. Result for CC(C)C(CCO)NC(=O)Nc1ccc(-c2csnn2)cc1 (stereo unspecified) was -3.254%. With Nc1nccnc1C1CN(C(=O)c2cnc(C3CC3)nc2)CCO1 (stereo unspecified) the screen gave -2.862%.

c1ccc(-c2ncn(CCCN3CCOCC3)c2-c2ccncc2)cc1 gave -2.577%. With Cc1ccc(CN2Cc3c(cnn3C)C(COCC3CC3)C2)s1 (stereo unspecified) the screen gave -8.538%. With CC(C)(C)c1c[nH]c([C@@H]2COCCN2C2CCNCC2)n1 the screen gave -0.2305%. Result for O=C(CCNS(=O)(=O)c1ccccc1)NCc1ccoc1 was -11.21%. CN(Cc1ccc2c(c1)OCO2)C(=O)NCCc1cnn(C)c1 gave -14.53%. Result for CCCn1ccnc1CN1CCCC(O)(CN2CCCC2)C1 (stereo unspecified) was 4.711%. CCc1nnc2n1CCN(C(=O)CN(C)Cc1ccccc1)C2 read 0.9931%.

NC(=O)CCSCc1cc(Br)cc2cccnc12 read -13.14%. With CC(C)c1noc(CCCC(=O)N2CCN(Cc3ccccn3)CC2)n1 the screen gave 6.928%. For Fc1cccc(-c2nc(CN3CCCC3Cn3cncn3)co2)c1 (stereo unspecified) the result was -15.38%. Cc1nc(CN(C)C2CCN(CC(=O)NC3CCOCC3)C2)no1 (stereo unspecified) read 17.9%. O=C(Cc1c[nH]c2ccccc12)NCC1CCN(Cc2c[nH]cn2)C1 (stereo unspecified) gave 0.3344%. With COCCOC(=O)N1CC2=CC(C)(C)COc3ccc(OC)c(c32)C1 the screen gave -4.68%. COc1nc2c(cc1C(=O)NCCc1nc3ccccc3s1)CCC2 gave -9.615%.

For COc1ccc(C(=O)Nc2nncs2)cn1 the result was 6.477%. For CS(=O)(=O)CCOCCNc1ccc(C#N)cc1F the result was -7.57%. Result for Cc1nn(C)cc1CN1CCCCCC1c1ccc(Cl)cc1 (stereo unspecified) was 9.429%. Cc1cc(C(=O)N2CCCC3(CN(C)C(=O)O3)C2)c2ccc(F)cc2n1 (stereo unspecified) gave 2.659%. For CCOCC1CN(C(=O)COc2ccccc2)Cc2cn(C)nc21 (stereo unspecified) the result was -2.139%. Result for C[C@H]1C[C@@H]2CCN(CC3CCOCC3)C[C@H]2O1 was 2.556%. O=C(c1ccc2cccc(F)c2n1)N1CCN(CCn2cncn2)CC1 gave -7.02%.

COCCN(CC1CC1)c1nc(CCN)nc2sc(C)c(C)c12 read 1.371%. For CCn1cc(S(=O)(=O)N2CCN(S(=O)(=O)c3ccc(Br)s3)CC2)c(C)n1 the result was -6.948%. For Cc1ccccc1NC(=O)CCNC(=O)c1ccoc1 the result was 10.1%. O=C(C1SCCc2sccc21)N1CCCCC1 (stereo unspecified) read 2.527%. For N#Cc1ccnc(NCc2cc3n(n2)CCCN(C(=O)C2CCC2)C3)c1 the result was -351.6%. For OC(CN(Cc1ccccc1)Cc1ccon1)c1cccs1 (stereo unspecified) the result was -8.278%. For CCN(CC)C1COc2ccc(Br)cc2C1=O (stereo unspecified) the result was -9.222%.

With CCOc1cccc(NS(=O)(=O)c2cc(C(=O)O)cs2)c1 the screen gave -1.972%. CC(C)(CNC(=O)C(C)(C)c1ccccc1F)C(N)=O read 4.37%. For O=C(NCC(CO)Cc1ccc(Cl)cc1)c1ccncc1Cl (stereo unspecified) the result was -8.73%. With CN(Cc1ccc(C#N)cc1)CC1CCS(=O)(=O)C1 (stereo unspecified) the screen gave 1.687%. Cn1c(CN2CCCC(Cn3cncn3)C2)nc2ccccc21 (stereo unspecified) gave -75.11%. COc1ccc(C(=O)N2CCCS2(=O)=O)cc1OC gave -21.94%. Cn1c(CN2CCN(c3cccnc3)CC2)cc2ccccc21 read 5.81%.

Result for Cn1ncc2c1C(COCC1CC1)CN(C(=O)Cc1ccsc1)C2 (stereo unspecified) was 0.425%. Result for CN1[C@@H](C(=O)NCC2CC2)C[C@H]2CN(Cc3ccsc3)C[C@H]21 was 3.611%. CNC(=O)COc1c(F)cc(Br)cc1C(C)=O read 1.94%. With CCSc1ccc(C(=O)NCCc2nnc(-c3ccco3)[nH]2)cn1 the screen gave 4.271%. CSc1ncccc1C(=O)NC(C)c1cccc(N2CCOC2=O)c1 (stereo unspecified) read -3.705%. CN(Cc1cccnc1)[C@@H]1CN(c2ncc(F)cn2)[C@@H]2CCCO[C@H]12 read -11.11%. CCN(Cc1noc(C(C)(C)C)n1)Cc1ccc(C#N)cc1F read -18.64%.

For CC1CN(C(=O)Nc2cccc(CN3CCOC3=O)c2)CCO1 (stereo unspecified) the result was -21.98%.

For reference, 7 entries once more:

SMILES,Percent Effect
Fc1cccc(-c2nc(CN3CCCC3Cn3cncn3)co2)c1 (stereo unspecified),-15.38
CSc1ncccc1C(=O)NC(C)c1cccc(N2CCOC2=O)c1 (stereo unspecified),-3.705
Cc1ccc2nc(C)cc(C(=O)NC(C)c3nnn[nH]3)c2c1 (stereo unspecified),-14.19
Cc1ccc(CN2Cc3c(cnn3C)C(COCC3CC3)C2)s1 (stereo unspecified),-8.538
CCSc1ccc(C(=O)NCCc2nnc(-c3ccco3)[nH]2)cn1,4.271
CS(=O)(=O)CCOCCNc1ccc(C#N)cc1F,-7.57
Cn1c(CN2CCCC(Cn3cncn3)C2)nc2ccccc21 (stereo unspecified),-75.11

Data taken from ChEMBL document CHEMBL3988442, “University of Dundee, Small-Polar-MMV Screening Library” (2021).